Measurements from the supplement of paper PMC10849652.
Some of the results follow.

By UniProt entry, the sequences of proteins in these tests, tags left out. Where a name states a change or a piece, a line headed by the entry shows the natural chain unless it says otherwise.
UniProt P51668: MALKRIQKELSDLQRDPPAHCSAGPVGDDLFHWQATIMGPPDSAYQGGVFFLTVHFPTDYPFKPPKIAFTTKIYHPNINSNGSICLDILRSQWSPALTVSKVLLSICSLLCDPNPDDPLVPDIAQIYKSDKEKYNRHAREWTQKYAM
UniProt Q96RT8, whole entry, looked up: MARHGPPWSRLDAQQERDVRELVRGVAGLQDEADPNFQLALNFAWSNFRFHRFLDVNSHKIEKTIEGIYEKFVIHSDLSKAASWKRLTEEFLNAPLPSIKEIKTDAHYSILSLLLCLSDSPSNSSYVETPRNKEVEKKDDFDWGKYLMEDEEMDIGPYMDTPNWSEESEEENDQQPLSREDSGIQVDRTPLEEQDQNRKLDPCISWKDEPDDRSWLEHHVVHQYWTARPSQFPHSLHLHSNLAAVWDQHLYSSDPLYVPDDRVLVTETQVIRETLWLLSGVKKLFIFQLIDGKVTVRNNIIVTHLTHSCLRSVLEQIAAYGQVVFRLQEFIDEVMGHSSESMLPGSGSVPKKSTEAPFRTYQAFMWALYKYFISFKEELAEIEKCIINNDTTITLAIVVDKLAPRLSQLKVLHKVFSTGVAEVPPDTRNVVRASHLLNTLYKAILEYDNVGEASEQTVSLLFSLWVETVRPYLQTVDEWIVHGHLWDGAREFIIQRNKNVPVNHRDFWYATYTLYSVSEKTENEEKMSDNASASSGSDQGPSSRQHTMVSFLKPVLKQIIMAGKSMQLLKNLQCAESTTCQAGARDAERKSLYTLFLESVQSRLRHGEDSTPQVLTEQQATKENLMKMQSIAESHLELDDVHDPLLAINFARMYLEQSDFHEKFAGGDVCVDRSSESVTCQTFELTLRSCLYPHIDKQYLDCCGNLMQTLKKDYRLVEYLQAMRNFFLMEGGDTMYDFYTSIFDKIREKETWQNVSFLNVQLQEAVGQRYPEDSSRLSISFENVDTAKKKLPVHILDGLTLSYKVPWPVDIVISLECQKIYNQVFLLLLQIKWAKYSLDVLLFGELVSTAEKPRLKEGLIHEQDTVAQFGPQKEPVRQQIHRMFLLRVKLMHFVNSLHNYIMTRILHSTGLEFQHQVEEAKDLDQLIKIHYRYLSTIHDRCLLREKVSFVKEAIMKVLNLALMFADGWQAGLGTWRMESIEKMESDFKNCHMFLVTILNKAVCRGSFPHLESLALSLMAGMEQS
UniProt Q8N2K1: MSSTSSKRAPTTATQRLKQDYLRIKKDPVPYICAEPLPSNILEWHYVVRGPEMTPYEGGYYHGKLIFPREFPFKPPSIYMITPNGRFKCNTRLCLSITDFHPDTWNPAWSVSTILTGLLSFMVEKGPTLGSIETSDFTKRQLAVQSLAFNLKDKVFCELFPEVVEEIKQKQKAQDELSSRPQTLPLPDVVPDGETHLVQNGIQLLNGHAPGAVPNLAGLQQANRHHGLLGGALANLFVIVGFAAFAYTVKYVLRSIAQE
UniProt O95857: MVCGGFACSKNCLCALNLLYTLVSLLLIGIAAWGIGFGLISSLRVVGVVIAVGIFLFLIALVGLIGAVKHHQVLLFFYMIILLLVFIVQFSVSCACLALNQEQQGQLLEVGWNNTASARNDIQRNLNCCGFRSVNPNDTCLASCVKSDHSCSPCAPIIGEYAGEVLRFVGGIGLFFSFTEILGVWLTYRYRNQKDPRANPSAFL
UniProt Q3B726, whole entry, looked up: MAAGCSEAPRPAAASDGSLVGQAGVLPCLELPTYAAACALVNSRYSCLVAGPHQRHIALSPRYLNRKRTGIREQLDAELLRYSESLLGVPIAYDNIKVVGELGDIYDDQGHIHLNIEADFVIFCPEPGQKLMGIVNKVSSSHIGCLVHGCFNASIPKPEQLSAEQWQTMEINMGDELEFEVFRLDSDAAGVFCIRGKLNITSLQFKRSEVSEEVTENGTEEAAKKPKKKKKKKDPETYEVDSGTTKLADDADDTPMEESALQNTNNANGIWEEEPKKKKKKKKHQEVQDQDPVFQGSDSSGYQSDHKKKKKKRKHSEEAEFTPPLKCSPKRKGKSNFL
UniProt Q96ET8: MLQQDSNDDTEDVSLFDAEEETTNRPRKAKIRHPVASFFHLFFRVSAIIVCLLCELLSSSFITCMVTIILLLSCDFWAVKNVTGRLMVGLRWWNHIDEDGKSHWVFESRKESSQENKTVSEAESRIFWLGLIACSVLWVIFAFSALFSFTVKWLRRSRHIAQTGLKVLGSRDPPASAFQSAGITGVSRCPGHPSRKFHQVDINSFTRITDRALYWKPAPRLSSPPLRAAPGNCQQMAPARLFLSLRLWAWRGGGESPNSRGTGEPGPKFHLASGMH
UniProt Q86VQ3: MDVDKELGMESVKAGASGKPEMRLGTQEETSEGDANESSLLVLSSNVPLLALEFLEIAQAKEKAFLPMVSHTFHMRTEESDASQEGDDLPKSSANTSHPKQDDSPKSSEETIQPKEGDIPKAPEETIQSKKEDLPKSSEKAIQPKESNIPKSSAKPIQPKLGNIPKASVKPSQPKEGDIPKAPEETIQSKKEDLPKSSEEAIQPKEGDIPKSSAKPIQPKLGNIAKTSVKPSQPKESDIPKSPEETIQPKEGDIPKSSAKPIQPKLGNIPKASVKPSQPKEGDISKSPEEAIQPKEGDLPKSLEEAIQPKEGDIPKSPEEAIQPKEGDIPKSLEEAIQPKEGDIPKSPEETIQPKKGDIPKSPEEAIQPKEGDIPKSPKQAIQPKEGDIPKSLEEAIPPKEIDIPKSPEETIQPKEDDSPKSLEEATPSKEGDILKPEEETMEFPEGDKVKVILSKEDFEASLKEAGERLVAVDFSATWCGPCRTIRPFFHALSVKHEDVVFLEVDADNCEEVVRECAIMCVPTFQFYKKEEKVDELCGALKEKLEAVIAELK
UniProt Q06418: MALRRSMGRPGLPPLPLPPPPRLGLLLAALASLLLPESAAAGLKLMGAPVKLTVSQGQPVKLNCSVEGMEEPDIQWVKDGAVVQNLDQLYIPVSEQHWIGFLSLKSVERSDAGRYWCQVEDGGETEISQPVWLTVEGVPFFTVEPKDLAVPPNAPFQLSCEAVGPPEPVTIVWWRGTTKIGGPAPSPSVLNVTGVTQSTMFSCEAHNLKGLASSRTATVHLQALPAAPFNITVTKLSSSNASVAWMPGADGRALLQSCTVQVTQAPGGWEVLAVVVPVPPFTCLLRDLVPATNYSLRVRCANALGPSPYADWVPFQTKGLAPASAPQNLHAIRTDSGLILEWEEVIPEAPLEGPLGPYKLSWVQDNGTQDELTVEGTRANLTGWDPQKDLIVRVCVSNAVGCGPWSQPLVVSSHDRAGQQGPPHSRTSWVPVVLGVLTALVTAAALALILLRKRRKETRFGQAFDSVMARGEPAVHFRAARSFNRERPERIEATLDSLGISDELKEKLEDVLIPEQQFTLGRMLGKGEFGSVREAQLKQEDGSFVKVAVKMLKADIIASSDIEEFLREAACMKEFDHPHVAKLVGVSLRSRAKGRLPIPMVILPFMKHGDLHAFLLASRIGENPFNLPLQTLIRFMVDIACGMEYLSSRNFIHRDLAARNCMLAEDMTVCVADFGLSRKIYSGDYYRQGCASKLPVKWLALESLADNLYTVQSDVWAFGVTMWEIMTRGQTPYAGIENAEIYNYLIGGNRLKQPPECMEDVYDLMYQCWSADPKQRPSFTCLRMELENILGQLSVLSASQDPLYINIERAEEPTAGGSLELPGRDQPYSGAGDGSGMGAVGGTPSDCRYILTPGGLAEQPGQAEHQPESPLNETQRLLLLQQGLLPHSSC
UniProt Q9H0U9: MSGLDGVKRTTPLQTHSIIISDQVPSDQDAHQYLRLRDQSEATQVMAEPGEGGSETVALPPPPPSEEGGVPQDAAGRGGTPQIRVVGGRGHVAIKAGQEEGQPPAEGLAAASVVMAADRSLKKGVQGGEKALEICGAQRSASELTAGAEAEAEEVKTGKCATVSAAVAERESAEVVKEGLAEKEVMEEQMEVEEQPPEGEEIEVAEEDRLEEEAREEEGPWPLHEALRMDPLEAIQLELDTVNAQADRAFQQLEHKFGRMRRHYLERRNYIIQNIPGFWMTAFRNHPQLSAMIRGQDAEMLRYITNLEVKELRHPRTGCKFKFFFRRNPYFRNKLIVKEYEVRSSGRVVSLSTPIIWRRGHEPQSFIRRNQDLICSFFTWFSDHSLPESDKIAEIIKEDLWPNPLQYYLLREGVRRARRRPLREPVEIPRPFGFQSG
UniProt Q96RR1: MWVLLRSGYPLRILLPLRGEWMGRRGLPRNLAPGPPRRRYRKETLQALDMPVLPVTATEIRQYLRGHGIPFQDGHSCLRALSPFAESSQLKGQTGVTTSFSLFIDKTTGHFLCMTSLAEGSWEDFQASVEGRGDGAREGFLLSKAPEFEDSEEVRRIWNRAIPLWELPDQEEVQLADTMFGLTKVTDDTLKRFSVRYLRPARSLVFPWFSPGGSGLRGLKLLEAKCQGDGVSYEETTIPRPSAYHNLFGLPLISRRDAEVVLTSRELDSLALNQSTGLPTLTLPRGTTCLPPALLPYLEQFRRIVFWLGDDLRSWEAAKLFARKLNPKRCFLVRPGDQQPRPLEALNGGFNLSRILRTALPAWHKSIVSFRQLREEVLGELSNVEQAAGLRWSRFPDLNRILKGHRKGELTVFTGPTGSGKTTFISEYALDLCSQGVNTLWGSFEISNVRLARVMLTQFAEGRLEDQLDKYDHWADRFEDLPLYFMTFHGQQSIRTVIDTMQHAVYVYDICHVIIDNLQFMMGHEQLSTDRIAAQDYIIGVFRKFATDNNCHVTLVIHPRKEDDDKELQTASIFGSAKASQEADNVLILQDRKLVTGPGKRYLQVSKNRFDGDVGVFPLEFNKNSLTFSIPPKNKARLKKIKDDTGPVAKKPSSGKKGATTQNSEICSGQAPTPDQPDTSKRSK
UniProt Q3ZCM7, whole entry, looked up: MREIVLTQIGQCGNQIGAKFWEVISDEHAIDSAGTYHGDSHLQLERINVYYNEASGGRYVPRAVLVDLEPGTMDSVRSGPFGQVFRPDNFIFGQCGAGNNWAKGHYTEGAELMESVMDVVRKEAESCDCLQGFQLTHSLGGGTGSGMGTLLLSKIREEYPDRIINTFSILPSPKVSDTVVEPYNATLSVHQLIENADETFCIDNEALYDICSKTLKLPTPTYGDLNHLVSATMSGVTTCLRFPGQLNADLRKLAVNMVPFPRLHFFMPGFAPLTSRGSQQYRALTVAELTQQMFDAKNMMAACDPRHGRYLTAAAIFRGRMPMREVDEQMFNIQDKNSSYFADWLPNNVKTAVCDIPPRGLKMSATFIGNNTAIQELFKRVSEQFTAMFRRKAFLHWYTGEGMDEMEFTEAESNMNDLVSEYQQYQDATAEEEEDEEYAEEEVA
UniProt Q8WUA8: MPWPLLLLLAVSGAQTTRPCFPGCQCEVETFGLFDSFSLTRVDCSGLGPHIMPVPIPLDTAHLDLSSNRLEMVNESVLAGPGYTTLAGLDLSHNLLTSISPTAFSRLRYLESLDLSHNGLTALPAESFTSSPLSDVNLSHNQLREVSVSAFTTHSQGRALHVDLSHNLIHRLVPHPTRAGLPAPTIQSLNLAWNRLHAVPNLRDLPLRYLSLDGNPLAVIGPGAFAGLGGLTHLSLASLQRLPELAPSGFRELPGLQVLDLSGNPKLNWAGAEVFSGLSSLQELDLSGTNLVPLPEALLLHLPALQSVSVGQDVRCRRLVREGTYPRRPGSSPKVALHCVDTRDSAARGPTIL
UniProt Q96N46: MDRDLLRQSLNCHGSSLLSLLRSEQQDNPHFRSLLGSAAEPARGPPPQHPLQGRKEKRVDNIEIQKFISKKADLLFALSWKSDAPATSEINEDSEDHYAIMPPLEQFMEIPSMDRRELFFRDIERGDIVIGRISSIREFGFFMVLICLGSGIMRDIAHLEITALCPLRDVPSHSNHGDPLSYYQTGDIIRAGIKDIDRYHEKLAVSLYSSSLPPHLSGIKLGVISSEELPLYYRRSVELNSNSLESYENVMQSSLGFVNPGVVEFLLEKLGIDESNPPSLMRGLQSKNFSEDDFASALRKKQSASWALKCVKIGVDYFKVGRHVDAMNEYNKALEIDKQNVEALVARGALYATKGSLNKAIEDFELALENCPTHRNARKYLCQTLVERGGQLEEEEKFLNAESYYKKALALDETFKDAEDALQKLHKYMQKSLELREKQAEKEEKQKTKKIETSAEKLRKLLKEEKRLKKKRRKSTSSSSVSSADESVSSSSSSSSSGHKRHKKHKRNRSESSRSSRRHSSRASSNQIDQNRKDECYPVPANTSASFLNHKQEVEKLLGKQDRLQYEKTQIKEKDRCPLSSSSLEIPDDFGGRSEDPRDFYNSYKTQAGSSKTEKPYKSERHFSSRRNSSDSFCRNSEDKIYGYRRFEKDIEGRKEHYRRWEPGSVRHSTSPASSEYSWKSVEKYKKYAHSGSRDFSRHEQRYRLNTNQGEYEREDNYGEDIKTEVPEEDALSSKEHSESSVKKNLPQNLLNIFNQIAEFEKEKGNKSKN
UBE2L5, A0A1B0GUS4, UniProt A0A1B0GUS4, whole entry, looked up: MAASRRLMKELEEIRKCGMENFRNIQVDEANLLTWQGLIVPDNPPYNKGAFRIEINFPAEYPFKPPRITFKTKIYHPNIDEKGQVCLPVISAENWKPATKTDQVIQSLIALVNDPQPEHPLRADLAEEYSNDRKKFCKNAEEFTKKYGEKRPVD

compound: Cc1cccc(CC(=O)N2CCc3c2ccc(-c2cn(C)c4ncnc(N)c24)c3F)n1; assay: log2 fold change, soluble protein after heating vs DMSO (PISA); higher = thermal stabilisation; K562 cells, 10 uM, 30 min; active = over 0.2 and 3.5 SD of the protein, either way, in both replicates (recomputed)
Summary of the method: (§1)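 Quantification of soluble protein used TMTpro 16plex LC-MS/MS, with channel sums equalised. Samples were the supernatant after 21,000xg for 90 min of pooled aliquots from K562 cells (2×10^6 cells/mL) treated with 10 μM compound for 30 min, heated for 3 min over 48°C-58°C, and extracted in PBS with 0.5% NP-40 at 4°C. Values, from duplicates, describe thermal stability against control samples on a log2 fold-change scale.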

log2 fold change, active:
UBE2D1 (UniProt P51668) -0.345

log2 fold change, inactive:
TUBGCP5 (UniProt Q96RT8) -0.143
TXNRD1 isoform 7 (UniProt Q16881) 0.001
UBE2J2 isoform 3 (UniProt Q8N2K1) -0.12
TTC17 isoform 2 (UniProt Q96AE7) -0.025
TSPAN13 (UniProt O95857) 0.014
TYW5 (UniProt A2RUC4) -0.067
TWISTNB (UniProt Q3B726) -0.075
TVP23C (UniProt Q96ET8) 0.033
UBAP2L (UniProt F8W726) -0.049

compound: Cc1cn(-c2cc(NC(=O)c3ccc(C)c(Nc4nccc(-c5cccnc5)n4)c3)cc(C(F)(F)F)c2)cn1 [nilotinib]; assay: as above
Summary of the method: as §1

log2 fold change, inactive:
TUBGCP5 (UniProt Q96RT8) 0.168
U2AF1L5 (UniProt P0DN76) 0.025
TXNDC2 (UniProt Q86VQ3) -0.226
TYRO3 (UniProt Q06418) 0.045
TSPYL1 (UniProt Q9H0U9) 0.209
TWNK (UniProt Q96RR1) 0.1
TUBB8 (UniProt Q3ZCM7) -0.089
TSPAN13 (UniProt O95857) 0.056
UBE2D1 (UniProt P51668) -0.002
UBAP2L (UniProt F8W726) 0.151

compound: Cc1nc(Nc2n[nH]c3c2CN(C(=O)N[C@H](CN(C)C)c2ccccc2)C3(C)C)c2sccc2n1; assay: as above
Summary of the method: as §1

log2 fold change, inactive:
TUBGCP5 (UniProt Q96RT8) 0.054
U2AF1L5 (UniProt P0DN76) -0.669
TXNDC2 (UniProt Q86VQ3) -0.144
TYRO3 (UniProt Q06418) 0.018
TSPYL1 (UniProt Q9H0U9) 0.117
TWNK (UniProt Q96RR1) -0.036
TUBB8 (UniProt Q3ZCM7) -0.1
TSPAN13 (UniProt O95857) -0.035
UBE2D1 (UniProt P51668) 0.046
UBAP2L (UniProt F8W726) 0.063

compound: Cc1nc(Nc2ncc(C(=O)Nc3c(C)cccc3Cl)s2)cc(N2CCN(CCO)CC2)n1 [dasatinib]; assay: as above
Summary of the method: as §1

log2 fold change, inactive:
U2AF1L5 (UniProt P0DN76) -0.017
TYK2 (UniProt P29597) -0.089
TTC21B (UniProt Q7Z4L5) 0.071
TXNDC2 (UniProt Q86VQ3) -0.019
TXNRD1 isoform 7 (UniProt Q16881) -0.052
UBE2J2 isoform 3 (UniProt Q8N2K1) -0.154
TTC5 (UniProt Q8N0Z6) 0.11
TUBB8 (UniProt Q3ZCM7) 0
TSPAN13 (UniProt O95857) -0.163
TWISTNB (UniProt Q3B726) -0.129
TVP23C (UniProt Q96ET8) 0.056
UBE2D1 (UniProt P51668) -0.083

compound: Cc1ncc(-c2ccnc(Nc3ccc(S(C)(=O)=O)cc3)n2)n1C(C)C; assay: as above
Summary of the method: as §1

log2 fold change, inactive:
TUBGCP5 (UniProt Q96RT8) -0.131
U2AF1L5 (UniProt P0DN76) -0.108
TXNDC2 (UniProt Q86VQ3) 0.068
TYRO3 (UniProt Q06418) -0.165
TSPYL1 (UniProt Q9H0U9) -0.053
TWNK (UniProt Q96RR1) -0.101
TUBB8 (UniProt Q3ZCM7) 0.137
TSPAN13 (UniProt O95857) -0.095
UBE2D1 (UniProt P51668) -0.074
UBAP2L (UniProt F8W726) -0.109

compound: Cn1cc(-c2ccc3c(c2)CCN3C(=O)Cc2cccc(C(F)(F)F)c2)c2c(N)ncnc21; assay: as above
Summary of the method: as §1

log2 fold change, inactive:
TUBGCP5 (UniProt Q96RT8) 0.058
UBE2J2 isoform 3 (UniProt Q8N2K1) 0.013
TSPYL1 (UniProt Q9H0U9) -0.052
TSKU (UniProt Q8WUA8) -0.056
TTC14 (UniProt Q96N46) 0.163
UBE2L5, A0A1B0GUS4 -0.03
TSPAN13 (UniProt O95857) -0.038
TWISTNB (UniProt Q3B726) -0.031
TVP23C (UniProt Q96ET8) -0.116
UBE2D1 (UniProt P51668) 0.036

compound: Cn1cc(-c2ccc3nnc(C(F)(F)c4ccc5ncccc5c4)n3n2)cn1; assay: as above
Summary of the method: as §1

log2 fold change, inactive:
TXNDC2 (UniProt Q86VQ3) -0.034
TTC5 (UniProt Q8N0Z6) 0.032
TTK (UniProt P33981) -0.35
TSPAN4 (UniProt O14817) -0.112
TWNK (UniProt Q96RR1) -0.058
TUBB8 (UniProt Q3ZCM7) 0
TSPAN13 (UniProt O95857) 0.095
TYW5 (UniProt A2RUC4) -0.06
TUBD1 (UniProt Q9UJT1) -0.129
TTC26 0.04
UBE2D1 (UniProt P51668) -0.075
TTC37 (UniProt Q6PGP7) 0.17
